Assay results published in PubChem BioAssay AID540276 (National Center for Advancing Translational Sciences (NCATS), 2011).
“And” between values parts separate entries of the source, which are not always exact repeats. Identical values can stand only once. Out of some 300,000 compounds screened, about 5,400 (1.8%) were called active. Inconclusive means that the source gave no clear call. Such entries were picked first, then a sample of the others. Calls follow the shape of the full dose curve; tested in HEK293 cells. Potencies of inconclusive entries are doubtful fits and often do not repeat.

Assay: qHTS for inhibitors of binding or entry into cells for Marburg Virus
Conditions: Marburg virus pseudotyped entry inhibition, cell reporter; series mostly up to 37.8 µM
Potency is read from the fitted curve at half-maximal effect.

SMILES | Potency
COc1cccc(C2CC(c3cccc(Br)c3)n3ncnc3N2)c1 (stereo not given) | inactive
COc1cccc(C(=O)Nc2ccc(S(=O)(=O)N3CCCCC3)cc2)c1OC | inactive
Cc1ccc(NC(=O)CC(NCC2CCCO2)C(=O)O)cc1C (stereo not given) | inconclusive: 1.78 µM [activator, partial curve, poor fit]
CN(C)c1ccc(/C=N/NC(=O)C(=O)/C=C2\NC3(CCCC3)Cc3ccccc32)cc1 | inconclusive: 18.4 µM [inhibitor, partial curve, poor fit]
COc1cc(NC(=O)Nc2ccc(C)cc2)cc([N+](=O)[O-])c1 | inconclusive: 8.91 µM [inhibitor, partial curve]
O=C(Nc1cc(Cl)ccc1-n1cncn1)c1cncc(Br)c1 | inconclusive: 2 µM [activator, single point]
Fc1ccc2nc(Nc3nc4cc5c(cc4s3)OCO5)sc2c1 | inconclusive: 20.6 µM [activator, partial curve]
Cc1cc(CN(C)C(=O)c2cc(COc3ccc4ncccc4c3)on2)on1 | inconclusive: 15.8 µM [inhibitor, partial curve, poor fit]
COC(=O)NC(=C(Cl)Cl)S(=O)(=O)c1ccccc1 | inconclusive: 22.4 µM [inhibitor, partial curve, poor fit]
OC(CNCCc1ccc(Cl)cc1)COc1ccc2ccccc2c1 (stereo not given) | inconclusive: 35.5 µM [inhibitor, single point]
CCOC(=O)N1CCc2c(sc3c2c(=O)n(-c2ccccc2C(F)(F)F)c(=O)n3Cc2ccccc2C)C1 | inactive
O=C(CN1C(=O)NC2(CCCC2)C1=O)NCc1ccco1 | inconclusive: 6.31 µM [activator, single point]
O=C(CSc1nnc2ccc3ccccc3n12)Nc1ccccc1Cl | inactive
COc1ccccc1N1CCN(CCCCOc2ccc(F)cc2)CC1 | inconclusive: 23.1 µM [inhibitor, single point]
Cc1nn(-c2ccccc2)c(C)c1C(=O)Oc1ccccc1 | inactive
CCOc1ccc(C2CC(c3c(O)n(C4CCCCC4)c(=O)[nH]c3=O)=Nc3ccccc3S2)cc1 (stereo not given) | inconclusive: 14.1 µM [activator, single point]
Cc1ccc(CCNC(=O)c2cc3c(s2)-c2c(C)cccc2OC3)cc1 | inactive
CCOC(=O)c1sc2nc(C)nc(N3CCCCC3C)c2c1C (stereo not given) | inconclusive: 3.16 µM [activator, single point]
O=C(COC(=O)CNC(=O)c1ccc(Cl)cc1Cl)NC(=O)NCc1ccccc1 | inconclusive: 1.26 µM [inhibitor, partial curve, poor fit]
CC1CC(C)CN(CCOc2ccccc2-c2ccccc2)C1 (stereo not given) | inconclusive: 23.1 µM [inhibitor, single point]
CSc1ccc(CN2CCC(Oc3ccc(C(=O)N4CCCC4)cc3)CC2)cc1 | inconclusive: 35.5 µM [inhibitor, single point]
O=C(O)CSc1nc2ccccc2o1 | inconclusive: 1.83 µM [inhibitor, partial curve, poor fit]
CNC(=S)N(Cc1cccs1)Cc1cc2cc(OC)ccc2[nH]c1=O | inconclusive: 3.55 µM [activator, single point]
Cc1ccccc1Cn1cc(NC(=O)c2noc3c2CC(C(C)(C)C)CC3)cn1 (stereo not given) | inconclusive: 4.61 µM [inhibitor, partial curve, poor fit]

SMILES | Potency
C=CC(=O)N1C/C(=C/c2ccccc2)C(=O)/C(=C\c2ccccc2)C1 | active: 2.82 µM
CC1(C)CC(=O)C([N+](=O)[O-])=C(NCCCO)C1 | inconclusive: 5.62 µM [inhibitor, single point]
Cc1cc(C)cc(NS(=O)(=O)c2cc(C(=O)NCc3ccccn3)ccc2Cl)c1 | inactive
CCOC(=O)c1sc(=S)n(-c2ccccc2)c1SC | inactive
CC(C)N(Cc1ccccc1)C(=S)NC(=O)C1(C)CC1(Cl)Cl (stereo not given) | inconclusive: 35.5 µM [inhibitor, partial curve, poor fit]
COc1cc(OC)c(C#N)c(S(=O)(=O)Cc2ccccc2)c1 | inactive
Cc1nc(N2CCN(c3ccccc3)CC2)[nH]c(=O)c1C | inactive
CCC(C)(C)n1nnnc1C(c1cccs1)N1CCc2ccccc21 (stereo not given) | inconclusive: 29.1 µM [inhibitor, single point]
COc1nccc(Nc2ccccc2)c1C#N | inactive
Cc1cccc(NC(=O)CSc2nsc(SCC(=O)Nc3cccc(C)c3)c2C#N)c1 | inactive
O=C(c1ccc(-c2ccccc2)cc1)C1CCCN(C(=O)c2ccncc2)C1 (stereo not given) | inconclusive: 35.5 µM [inhibitor, single point]
Cc1ccc(C2=NO[C@@](CC(=O)O)(C(=O)Nc3ccc4c(c3)OCCO4)C2)cc1 | inconclusive: 4.47 µM [activator, full curve]
CC(C)(C)NC(=O)C1(N2C(=O)c3ccccc3C2=O)CCCC1 | inconclusive: 1.26 µM [inhibitor, single point]
Cc1cnc(C(=O)Nc2ccccc2F)cn1 | inactive
Cc1ccc(NC(=O)CCOc2ccccc2)cc1S(=O)(=O)Nc1ccccc1Cl | inconclusive: 31.6 µM [inhibitor, partial curve, poor fit]
Cc1ccc(Nc2nc3ccccc3c3nncn23)c(Cl)c1 | inconclusive: 3.55 µM [inhibitor, single point]
Cc1ccc(-c2nc(NC(=O)CSc3nc(C)nc4sc5c(c34)CCCC5)ns2)cc1 | inactive
CN(CC(=O)N1CCCCCC1)S(=O)(=O)c1ccc(Br)s1 | inconclusive: 22.4 µM [activator, single point]
OC1CNc2c(ccc3ccccc23)C1 (stereo not given) | inactive
C[C@@H]1NC(=O)[C@@H](C)COC(=O)[C@H](C)NC(=O)[C@@H](C)COC1=O | inconclusive: 0.422 µM [activator, partial curve, poor fit]
COc1ccc(/C=N/NC(=O)c2nc(-c3ccccc3)cc(-c3ccccc3)n2)cc1O | active: 17.8 µM
COc1ccc(/C=N/Nc2nc(N)cc(Cl)n2)cc1OC | inconclusive: 6.51 µM [activator, partial curve, poor fit]
COC(=O)c1cc(NC(=O)c2ccccc2F)cc(C(=O)OC)c1 | inconclusive: 25.1 µM [inhibitor, partial curve, poor fit]
CC(C)CNC(=O)CO/N=C/c1ccccc1Cl | inconclusive: 11.2 µM [inhibitor, partial curve]

SMILES | Potency
O=C(NCC1(O)CCCCC1)C1CCC(=O)N(Cc2cccc(C(F)(F)F)c2)C1 (stereo not given) | inactive
C/C(=N\Nc1ccccc1[N+](=O)[O-])c1ccc(N2CCOCC2)cc1 | inactive
Nc1ncnc(N)c1N=Nc1ccccc1 | active: 5.01 µM
COc1ccccc1NC(=O)c1nc[nH]c1C(=O)Nc1ccccc1OC | inconclusive: 3.98 µM [inhibitor, single point]
Cc1ccccc1CN1CCC(CNC(=O)C2CCCN(c3ncnc4c3nc3n4CCCCC3)C2)CC1 (stereo not given) | inconclusive: 35.5 µM [inhibitor, partial curve, poor fit]
O=C(Nc1ccc(Br)cc1)c1cccc(N2C(=O)CCC2=O)c1 | inactive
CCN(CCS(=O)(=O)c1ccc(Cl)cc1)C(=O)Nc1ccccc1 | inconclusive: 0.794 µM [inhibitor, partial curve, poor fit]
CCc1ccc(-n2nc(CO)c(C(=O)NCCCc3ccccc3)n2)cc1 | inactive
N#C/C(=C\c1ccc(O)c(O)c1)C(=O)NCCCNC(=O)/C(C#N)=C/c1ccc(O)c(O)c1 | inconclusive: 9.96 µM [inhibitor, full curve, poor fit] and inconclusive: 631 nM [inhibitor, full curve]
COc1ccc(C(C)=O)cc1CSc1nnc(-c2ccc(Cl)cc2)n1-c1ccccc1 | inconclusive: 10 µM [inhibitor, partial curve, poor fit]
Cc1cc(C)n(-c2ccc(C(=O)NC3=NCCS3)cc2)n1 | inconclusive: 5.8 µM [activator, full curve, poor fit]
CC(=O)c1nc(N2C(=O)CC(Cc3ccc(C)cc3)C2=O)sc1C (stereo not given) | inconclusive: 10 µM [activator, partial curve, poor fit]
CCN(CC)S(=O)(=O)c1ccc2nc(NC(=O)c3ccco3)sc2c1 | inconclusive: 22.4 µM [activator, single point]
CCCCOc1ccc(C(=O)N2CCN(CC(=O)Nc3ccc(C)cc3)CC2)cc1OC | inconclusive: 15.8 µM [inhibitor, single point]
CCS(=O)(=O)N1Cc2ccccc2CC1C(=O)Nc1nccs1 (stereo not given) | inconclusive: 6.51 µM [activator, single point]
Cc1ccc(S(=O)(=O)N2CCC(C(=O)N3Cc4ccccc4C3)CC2)cc1 | inconclusive: 11.2 µM [inhibitor, partial curve, poor fit]
CCc1cccc(NC(=O)C2CCC(CNS(=O)(=O)c3ccc(Br)s3)CC2)c1 (stereo not given) | inactive
O=C(CC1NCCNC1=O)Nc1ccc([N+](=O)[O-])cc1 (stereo not given) | inconclusive: 22.4 µM [activator, single point]
O=C(NCCNC(=O)c1ccc([N+](=O)[O-])cc1)c1ccncc1 | inactive
CC1=NN(C(N)=S)C(=O)C1N=Nc1ccc(Br)cc1 (stereo not given) | inconclusive: 1 µM [activator, full curve]
CC(C)(C)CN1CCN(Cc2cccnc2)CC1CCO (stereo not given) | inactive
CCC1=Nc2cc(C(=O)NCCN(CC)CC)ccc2Sc2ccccc21 | inconclusive: 35.5 µM [inhibitor, single point]
